Experimental data: PubChem BioAssay AID686943 (Drosophila RNAi Screening Center, 2013)
The screen tested about 23,000 reagents; below is an unselected part of those that have a named target and a result. 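Extra replicates exist only for a retested subset of genes; insulin dose and duration not given; both raised and lowered dpERK matter.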 Reagents against one gene are numbered here. A plus sign joins genes that one reagent is predicted to hit. Not all columns of the deposit are shown. Not given: the amount of reagent, the time to read-out.

Aim: 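Search across the genome for regulators of signalling from receptor tyrosine kinase to ERK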 (primary screen)
Cells: Drosophila S2R+ haemocyte-like cells expressing YFP-tagged ERK (Rolled)
Reagents: long dsRNA against Drosophila genes
Treatment: insulin stimulation versus unstimulated cells; dose and duration not given
Detection: 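Antibody staining for doubly phosphorylated ERK divided by ERK-YFP signal, as plate z-scores, in insulin-treated and untreated cells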
Reading the numbers: replicate 1, z-score of dpERK with insulin: higher = more active ERK per ERK-YFP after insulin

CG18599 #1
- replicate 1, z-score of dpERK with insulin: 1.5

CG18599 #2
- replicate 1, z-score of dpERK with insulin: -4.28

Mi-2 + Su(Tpl)
- replicate 1, z-score of dpERK with insulin: 0.64

Itgbn
- replicate 1, z-score of dpERK with insulin: 0.67

CG13306
- replicate 1, z-score of dpERK with insulin: -0.35

ND-ASHI
- replicate 1, z-score of dpERK with insulin: 0.2

Hexim
- replicate 1, z-score of dpERK with insulin: -0.53

lectin-24Db
- replicate 1, z-score of dpERK with insulin: -0.06

CG6574
- replicate 1, z-score of dpERK with insulin: 0.01

CG6567 + CG42394
- replicate 1, z-score of dpERK with insulin: 0.15

eIF3l
- replicate 1, z-score of dpERK with insulin: -0.61

Lcp65APsi #1
- replicate 1, z-score of dpERK with insulin: 0.15

Lcp65APsi #2
- replicate 1, z-score of dpERK with insulin: -0.21

Cpsf160
- replicate 1, z-score of dpERK with insulin: 1.1

CG8929 #1
- replicate 1, z-score of dpERK with insulin: 0.94

CG8929 #2
- replicate 1, z-score of dpERK with insulin: 0.66

Cyp4aa1
- replicate 1, z-score of dpERK with insulin: -0.49

CG16989
- replicate 1, z-score of dpERK with insulin: -0.49

CR31427
- replicate 1, z-score of dpERK with insulin: 0.25

CG9458
- replicate 1, z-score of dpERK with insulin: 1.1

Dbp73D
- replicate 1, z-score of dpERK with insulin: -0.39

CG7900 #1
- replicate 1, z-score of dpERK with insulin: 0.87

CG7900 #2
- replicate 1, z-score of dpERK with insulin: 0.58

Traf6
- replicate 1, z-score of dpERK with insulin: 0.91

Had1
- replicate 1, z-score of dpERK with insulin: 1.49

mdlc
- replicate 1, z-score of dpERK with insulin: 0.07

Sf3b5
- replicate 1, z-score of dpERK with insulin: 2.65

CG11841
- replicate 1, z-score of dpERK with insulin: -0.68

run #1
- replicate 1, z-score of dpERK with insulin: -0.09

run #2
- replicate 1, z-score of dpERK with insulin: 0.28

CG15879
- replicate 1, z-score of dpERK with insulin: 0.22

Individual results from the entries so far:
eIF3l, replicate 1, z-score of dpERK with insulin → -0.61
Traf6, replicate 1, z-score of dpERK with insulin → 0.91
